Assay results: PubChem BioAssay AID1741 (Vanderbilt High Throughput Screening Facility, 2009)
Screen size: about 1,700 compounds; about 150 (8.8%) were called active. The inconclusive results got no clear call from the source; some entries with a clear call stand among them for comparison.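 The calls were made as follows: active = fluorescence change differing from the plate's solvent-only control wells at 99.7% confidence in both duplicates, whether higher or lower; inconclusive = differs from solvent controls in only one of two duplicates; inactive = the rest.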

The chains behind the UniProt entries cited, without tags or fusion partners.
UniProt P08485, whole entry, looked up: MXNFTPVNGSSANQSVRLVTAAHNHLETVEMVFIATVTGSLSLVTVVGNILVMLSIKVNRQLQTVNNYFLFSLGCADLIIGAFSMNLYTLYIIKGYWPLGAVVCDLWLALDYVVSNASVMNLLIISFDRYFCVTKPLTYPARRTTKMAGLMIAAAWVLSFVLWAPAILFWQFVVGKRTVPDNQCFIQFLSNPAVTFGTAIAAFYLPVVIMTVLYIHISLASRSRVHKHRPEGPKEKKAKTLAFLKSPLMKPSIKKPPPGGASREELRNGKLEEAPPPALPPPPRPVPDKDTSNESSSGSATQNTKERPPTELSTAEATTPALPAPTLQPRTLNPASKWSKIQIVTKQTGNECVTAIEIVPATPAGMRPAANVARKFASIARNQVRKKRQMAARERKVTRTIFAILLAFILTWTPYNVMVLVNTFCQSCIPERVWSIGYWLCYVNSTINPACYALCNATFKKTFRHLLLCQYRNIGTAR

Each compound was assayed against Muscarinic acetylcholine receptor M4 (Rattus norvegicus) (UniProt P08485) (assay: rat M4 muscarinic receptor activation – cell-based, agonist mode, counter-screen for M1 allosteric modulator project, confirmation (AID 1741)). Settings: CHO M4/Gqi5 cells, Fluo-4 calcium fluorescence, at 10 µM, actives lie on both sides.
In the case of `COc1ccc(CCNC(=O)c2ccccc2NC(=O)c2ccco2)cc1OC`, the fluorescence change (max-min) is reported as active: -77.5. With `O=C(Nc1ccc2c(c1)OCO2)N1CCN(c2cccc(C(F)(F)F)c2)CC1` the fluorescence change (max-min) was inconclusive: -212. With `CCc1nc(NCc2ccccn2)c2oc3ccccc3c2n1` the fluorescence change (max-min) was inconclusive: -62.2. In the case of `COc1cccc(C2C=C(c3ccc(Br)s3)Nc3ncnn32)c1OC` (stereo not given), the fluorescence change (max-min) is reported as active: 156. With `COc1cc(CSc2nnnn2-c2ccc(C)cc2)cc(OC)c1OC` the fluorescence change (max-min) was inconclusive: -48.7. For `O=C(NCC1CCCO1)c1ccccc1-c1nc(-c2ccccc2)no1` (stereo not given), the fluorescence change (max-min) was inconclusive: -104. In the case of `COc1cc(-c2nnc(SCC#CCO)o2)cc(OC)c1OC`, the fluorescence change (max-min) is reported as inactive: -12.5. For `COc1ccc2nc(N3CCCC3)c(C#N)cc2c1`, the fluorescence change (max-min) was active: 1180. In the case of `Cn1c(=O)c2c(SCC(=O)N3CCCc4ccccc43)nc(C3CC3)nc2n(C)c1=O`, the fluorescence change (max-min) is reported as inconclusive: -64.6. For `Cc1nc2sccn2c1-c1csc(NCc2ccccc2)n1`, the fluorescence change (max-min) was inconclusive: -71.1. With `COc1ccc(C2C(C(=O)N3CCN(c4ccccc4F)CC3)c3ccccc3C(=O)N2C)cc1` (stereo not given) the fluorescence change (max-min) was inconclusive: -155. In the case of `CCCn1nc(-c2ccccc2)c2nc3ccccc3nc21`, the fluorescence change (max-min) is reported as active: 1200. In the case of `CC(=O)Nc1nc(C)c(-c2csc(Nc3ccc(O)cc3)n2)s1`, the fluorescence change (max-min) is reported as inconclusive: -63.7. With `COc1ccc(-c2nnc3ccc(SCC(=O)N4CCCCC4)nn23)cc1OC` the fluorescence change (max-min) was inactive: -30.1. `CCCCN1CCc2c([nH]c3ccc(C)cc23)C1=O` was tested, and the fluorescence change (max-min) was inconclusive: -75. For `COc1ccc(NC(=O)N(Cc2cc3cc(OC)ccc3[nH]c2=O)CC2CCCO2)cc1` (stereo not given), the fluorescence change (max-min) was active: -73.9. For `CCCS(=O)(=O)c1nc(S(=O)(=O)c2ccc(C)cc2)c(NCCCN2CCOCC2)s1`, the fluorescence change (max-min) was inconclusive: -140. With `C=CCn1c(=O)/c(=C/c2ccc(Cl)cc2)s/c1=C(/C#N)c1nnc2n1CCCCC2` the fluorescence change (max-min) was inconclusive: -131. In the case of `COCCCNC(=O)C(C#N)c1nc2ccccc2nc1N1CCCC1` (stereo not given), the fluorescence change (max-min) is reported as active: 749. With `CC1Cc2ccccc2N1C(=O)CCNS(=O)(=O)c1cccc2nsnc12` (stereo not given) the fluorescence change (max-min) was inconclusive: -127. With `CCCc1cc(=O)oc2cc3occ(C)c3cc12` the fluorescence change (max-min) was inconclusive: -54.2. In the case of `O=C(Nc1ccc2nc(-c3ccco3)c(-c3ccco3)nc2c1)N1CCCCCC1`, the fluorescence change (max-min) is reported as inconclusive: 319. In the case of `OCC12COC(c3ccccc3)N1C(c1ccccc1)OC2` (stereo not given), the fluorescence change (max-min) is reported as inconclusive: -55.8. For `CC(C)c1nc2oc3c(NCC4CCCO4)ncnc3c2c2c1COC(C)(C)C2` (stereo not given), the fluorescence change (max-min) was inactive: -41.6. With `COc1ccc(OC)c(N(CC(=O)Nc2cccnc2)S(=O)(=O)c2ccc(OC)c(OC)c2)c1` the fluorescence change (max-min) was inconclusive: -73.5. In the case of `COc1ccccc1NC(=O)CN(Cc1ccco1)C(=O)c1ccc(-n2nc(C)cc2C)cc1`, the fluorescence change (max-min) is reported as inconclusive: -73. With `O=C(O)c1cc(O)c2c(c1)C(=O)c1cccc(O)c1C2=O` the fluorescence change (max-min) was inconclusive: 143. With `CC(N=c1ccccn1C(=O)Nc1ccc(Cl)cc1)c1ccco1` (stereo not given) the fluorescence change (max-min) was inconclusive: -82.1. With `CC(=O)Nc1c2c3c(cccc3n(C)c1=O)C(=O)c1ccccc1-2` the fluorescence change (max-min) was inconclusive: -28.7. In the case of `c1ccc(N2CCN(c3nc4ccccc4n4nnnc34)CC2)cc1`, the fluorescence change (max-min) is reported as inconclusive: -38.8. With `CCCCc1cc(O)c(CCCC)c(O)c1` the fluorescence change (max-min) was active: 320. In the case of `CS(=O)(=O)N1CCC(C(=O)Nc2ccc(Oc3ccccc3)cc2)CC1`, the fluorescence change (max-min) is reported as inactive: -70.3. For `O=C(NC1CCCCCC1)C1CCN(S(=O)(=O)c2ccccc2)CC1`, the fluorescence change (max-min) was inconclusive: -139. With `COc1cccc(C2=CC(c3ccc(C)cc3)n3ncnc3N2)c1` (stereo not given) the fluorescence change (max-min) was inconclusive: 129. For `CCOC(=O)C1CCCN(C(=O)c2cc(Cl)ccc2Cl)C1` (stereo not given), the fluorescence change (max-min) was active: -75.7. With `CCCCn1c(NC(C)=O)c(C#N)c2nc3ccccc3nc21` the fluorescence change (max-min) was inactive: -6.77. With `COc1ccc(Cl)c(NC(=O)NCCN2CCN(c3ccccc3)CC2)c1` the fluorescence change (max-min) was inactive: -59.1. In the case of `O=C(Nc1ccc(N2CCOCC2)c(Cl)c1)c1ccc(Br)o1`, the fluorescence change (max-min) is reported as inactive: -16.5. For `COc1cccc(C(=O)Nc2ccc(-c3nnc(-c4ccco4)o3)cc2)c1`, the fluorescence change (max-min) was inconclusive: -139. In the case of `COc1cc(-c2nc3cnccn3c2Nc2ccc3c(c2)OCCO3)ccc1O`, the fluorescence change (max-min) is reported as inconclusive: -27.8. In the case of `O=C(CN1CCN(S(=O)(=O)c2cc(Cl)ccc2Cl)CC1)Nc1ccc2c(c1)OCCO2`, the fluorescence change (max-min) is reported as inconclusive: -166. For `CCN1CC=C2C(C#N)=C(N)C(C#N)(C#N)C(CCc3ccccc3)C2C1` (stereo not given), the fluorescence change (max-min) was inconclusive: 217. For `CCn1c(CCn2ccnc2C)n[nH]c1=S`, the fluorescence change (max-min) was inconclusive: -62.3. `CCOC(=O)N1CCN(C(=O)CSc2nc3ccccc3c(=O)n2-c2ccccc2)CC1` was tested, and the fluorescence change (max-min) was inconclusive: -74. With `CCCS(=O)(=O)N1CCN(CC2CC3C=CC2C3)CC1` (stereo not given) the fluorescence change (max-min) was inconclusive: -87. In the case of `Cc1ccc2occ(C(c3nnnn3C3CCCC3)N3CCN(C(=O)c4ccco4)CC3)c(=O)c2c1` (stereo not given), the fluorescence change (max-min) is reported as inconclusive: -57.9. For `Cc1cc(C(=O)NCCCN2CCN(C3CCCCC3)CC2)n(-c2ccccc2)n1`, the fluorescence change (max-min) was inconclusive: -96.5. With `CCCCCCNc1c(C(=O)OCC)c(=O)[nH]c2ccccc12` the fluorescence change (max-min) was inactive: -33.3. For `Cc1ccsc1-c1nc(CSCC(=O)N2CCN(c3ccccc3)CC2)c(C)o1`, the fluorescence change (max-min) was inconclusive: -84.1. With `Cc1ccc2[nH]c(=O)c(CN(CCc3ccccc3)C(=O)N3CCOCC3)cc2c1` the fluorescence change (max-min) was inconclusive: -54.9. `O=C(CSc1nnnn1C1CC2CCC1C2)Nc1ccnc2ccccc12` (stereo not given) was tested, and the fluorescence change (max-min) was inactive: -1.3. For `NC(=O)C1CCN(c2ncnc3c2c(-c2ccccc2)cn3-c2ccccc2)CC1`, the fluorescence change (max-min) was inactive: -62.3. For `O=C(Nc1cnc2ccccc2c1)c1cccc(-n2cnnn2)c1`, the fluorescence change (max-min) was inactive: -35. `CCn1c(SCC(=O)c2cc(C)n(-c3ccc(C(=O)OC)cc3)c2C)nnc1-c1cccnc1` was tested, and the fluorescence change (max-min) was inconclusive: -66.7. `CC1CN(c2nc3ccccc3nc2C(C#N)C(=O)NC2CCCCC2)CC(C)O1` (stereo not given) was tested, and the fluorescence change (max-min) was inactive: -62.4. For `CCOC(=O)N1CCC(NCCNC(=O)c2ccccc2Cl)CC1`, the fluorescence change (max-min) was inconclusive: -75. For `COc1ccccc1N1CCN(C(=O)CSc2nc(-c3ccco3)cc(C(F)(F)F)n2)CC1`, the fluorescence change (max-min) was inactive: -11.2. In the case of `O=C(CCCc1nc(-c2ccc(Cl)cc2)no1)N1CCOCC1`, the fluorescence change (max-min) is reported as active: -89.7. `CN(C)c1ccc(/C=C/C(O)=C2/C(=O)N(C)C3(C)CC2c2ccccc2O3)cc1` (stereo not given) was tested, and the fluorescence change (max-min) was active: 229. For `CCOC(=O)c1ccc(NC(=O)c2cccc(S(=O)(=O)N3CCOCC3)c2)cc1`, the fluorescence change (max-min) was inconclusive: -87.9. For `CCOC(=O)c1c(N)n(CCOC(=O)c2cccs2)c2nc3ccccc3nc12`, the fluorescence change (max-min) was inactive: -36.5. `COC(=O)c1ccc2c(c1)SC1=C(CCCC1=O)N2` was tested, and the fluorescence change (max-min) was inconclusive: 51.9. `COc1ccccc1C(=O)Nc1cccc(-c2cn3ccsc3n2)c1` was tested, and the fluorescence change (max-min) was inactive: -40.3. For `Cc1nc2ccccc2c(=O)n1NCc1cc(Br)cs1`, the fluorescence change (max-min) was inactive: -12.9. In the case of `c1ccc(Cn2nnnc2C(c2cccnc2)N2CCN(c3ccccc3)CC2)cc1` (stereo not given), the fluorescence change (max-min) is reported as inconclusive: -44.8. For `O=C(O)C1CCC(=O)N1C1CCCC1` (stereo not given), the fluorescence change (max-min) was inconclusive: -170. In the case of `Cc1ccc(C)c(N2CCN(C(=O)COc3cc(=O)n(C)c4ccccc34)CC2)c1`, the fluorescence change (max-min) is reported as inactive: -36.8. For `CCn1nc(C)c(/C=C2\CCCC3=C2OC(N)=C(C#N)C3c2c(C)nn(CC)c2C)c1C` (stereo not given), the fluorescence change (max-min) was inconclusive: 75.2. In the case of `CCOC(=O)c1cc2c(=O)n3ccccc3nc2n(CCOC)c1=NC(=O)c1ccncc1`, the fluorescence change (max-min) is reported as inactive: -33.5. In the case of `Cc1cccc2cc(C(c3nnnn3Cc3ccccc3)N3CCN(c4ccccc4)CC3)c(=O)[nH]c12` (stereo not given), the fluorescence change (max-min) is reported as inconclusive: -145. In the case of `COc1ccc2nc(N3CCCC(O)C3)c(C#N)cc2c1` (stereo not given), the fluorescence change (max-min) is reported as active: 176. In the case of `O=C(Nc1ccc(Cc2ccncc2)cc1)c1ccc(S(=O)(=O)N2CCOCC2)cc1`, the fluorescence change (max-min) is reported as inconclusive: -112. With `c1ccc2[nH]c(-c3ccnc4ccccc34)nc2c1` the fluorescence change (max-min) was inactive: -34.1. With `CCOC(=O)C1=C(O)CSC1=Nc1ccc(Cl)cc1` the fluorescence change (max-min) was inconclusive: -149. In the case of `CCN1CC=C2C(C#N)=C(N)C(C#N)(C#N)[C@H](c3cccc(OC)c3OC)[C@H]2C1`, the fluorescence change (max-min) is reported as inconclusive: 244. For `O=C(C1CCN(c2nnc(-n3cccc3)s2)CC1)N1CCN(Cc2ccc3c(c2)OCO3)CC1`, the fluorescence change (max-min) was inactive: -61.6. With `COC(=O)c1c(=O)n(O)c2ccc(OC)cc2[n+]1[O-]` the fluorescence change (max-min) was active: 95.6. For `COc1ccc(NC(=O)COc2ccccc2C#N)c(S(=O)(=O)N2CCCCC2)c1`, the fluorescence change (max-min) was inactive: -25.5. With `O=C(O)c1ccccc1NCN1C(=O)C2CC=C(Cl)CC2C1=O` (stereo not given) the fluorescence change (max-min) was inconclusive: -156. `COc1ncnc2c1N=C1CC(C)(C)CC(N)=C1S2` was tested, and the fluorescence change (max-min) was active: 136. `COC(=O)c1c(NC(=O)CN2CCN(c3ccccc3)CC2)c2c(C)cccc2n1C` was tested, and the fluorescence change (max-min) was inconclusive: -171. With `O=c1c2ccccc2c(/C=N/n2cnnc2)c(O)n1-c1ccccc1` the fluorescence change (max-min) was active: 123. With `CCOC(=O)/C(C#N)=C1\Nc2ccccc2N=C1N(CC(C)C)CC(C)C` the fluorescence change (max-min) was inactive: -26.5. For `Cc1cccc(-c2nc(CSCC(=O)N3CCN(Cc4ccc5c(c4)OCO5)CC3)c(C)o2)c1`, the fluorescence change (max-min) was inconclusive: -83.6. With `O=C(Nc1cccc(Cl)c1)Nc1nccs1` the fluorescence change (max-min) was inconclusive: -29. With `O=C1CN(C(=O)COC(=O)c2ccccc2NC(=O)c2ccco2)c2ccccc2N1` the fluorescence change (max-min) was inconclusive: -74.5. For `CSc1nc(-c2ccco2)cc(-c2ccccc2)c1C#N`, the fluorescence change (max-min) was inconclusive: -59.8. `Cc1cccc(N2CCN(C(=O)c3cc4c(=O)n(C)c5ccccc5c4n3C)CC2C)c1` (stereo not given) was tested, and the fluorescence change (max-min) was inactive: -20.7. `CC1(C)Cc2c(C#N)c(N3CCOCC3)nc(Cc3ccccc3)c2CO1` was tested, and the fluorescence change (max-min) was inconclusive: -43.2. For `Cc1c(C(=O)NCCC2=CCCCC2)oc2ccc(S(=O)(=O)N3CCC4(CC3)OCCO4)cc12`, the fluorescence change (max-min) was inconclusive: -115.
